Data taken from PubChem BioAssay AID2685 (National Center for Advancing Translational Sciences (NCATS), 2010).
This is one part of the list. These are further read-outs of the screen, such as a control signal, another cell line or another target. No call is given for them. The list favours compounds with an active or inconclusive main result. Potencies come from curve fits of mixed quality, noted in brackets.

Experiment: qHTS Assay for Lipid Storage Modulators in Drosophila S3 Cells;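 for cell number change: cells counted by Cell Tracker Red CMTPX staining in the red channel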
Conditions: BODIPY lipid droplet fluorescence, 18-24 h; for cell number change: measured here: cell count max response, cells fed with added oleic acid
Summary of the method: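 Laser-scanning cytometry quantifies lipid droplet accumulation (500–530 nm total intensity; droplet/cell object ratio) in oleic acid-fed (400 uM added) Drosophila S3 cells treated with a concentration series. 20 uM Triacsin C defined 100% inhibition.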

[1] = measured here: lipid fluorescence (Fed channel) AC50, cells fed with added oleic acid
[2] = measured here: cell number channel AC50, cells fed with added oleic acid

SMILES	cell number change [%]	AC50 [1]	AC50 [2]
Cc1cc(=O)c(C(=O)O)nn1-c1ccccc1[N+](=O)[O-]	21	–	–
COc1cccc(C(=O)Nc2cccc(S(=O)(=O)NC3=NCCC3)c2)c1	6.51	0.146 µM [rising, full curve, poor fit]	–
CCN(CC)c1ccc(/C=N/OCC(=O)Nc2cccc(C)c2)cc1	-11.8	–	6.51 µM [falling, single point]
Nc1ncnc(Oc2ccccc2F)c1[N+](=O)[O-]	-33.2	29.1 µM [falling, single point]	29.1 µM [falling, single point]
C=CCN1C(=O)C(Cc2ccccc2)S/C1=N/N=C/c1cccs1 (configuration not stated)	32.3	18.4 µM [rising, partial curve]	2.06 µM [rising, partial curve, poor fit]
Cc1cccc(CCNS(=O)(=O)c2ccc3c(c2)NC(=O)CS3)c1	-2.95	–	–
COc1cc2c(cc1OC)C(C)N(C(=O)c1sc(-c3cnccn3)nc1C)CC2 (configuration not stated)	23.7	29.1 µM [rising, single point]	–
COC(=O)CSC(=S)N1CCCC(C)C1 (configuration not stated)	-71.2	20.6 µM [falling, single point]	20.6 µM [falling, single point]
CC(=O)N(C)N(C)c1cc(C)nc(N)n1	23.7	29.1 µM [rising, partial curve]	–
CN1CCN(C(=O)c2cccn(Cc3ccc(C(F)(F)F)cc3)c2=O)CC1	14.3	0.82 µM [rising, full curve, poor fit]	–
Cc1ccc(NC(=O)Cn2nnc(C(=O)NCc3cccs3)c2N)c(C)c1	-4.18	4.61 µM [falling, single point]	–
CN1CCN(S(=O)(=O)c2cccc3nsnc23)CC1	-1.32	–	–
CCOC(=O)Nc1ccc2c(c1)N(C(=O)CN1CCN(CCO)CC1)c1ccccc1CC2	-2.7	29.1 µM [falling, single point]	–
COCc1cc([C@@H]2C[C@H]3CN(c4ccccc4)C(=O)[C@]34CCCN24)ccc1OC	6.55	3.26 µM [rising, single point]	–
Cc1cc(Br)c(S(=O)(=O)NCc2ccncc2)cc1C	-45.9	10.3 µM [falling, partial curve]	13 µM [falling, partial curve]
O=C(COc1ccc2c3c(c(=O)oc2c1)CCC3)Nc1ccc(CCO)cc1	-19.5	10.3 µM [rising, partial curve]	–
COc1cc(-c2nc3ccc(N4CCN(C)CC4)cc3[nH]2)cc(OC)c1OC	-9.26	4.11 µM [rising, single point]	3.26 µM [rising, partial curve, poor fit]
Cc1ccc(S(=O)(=O)N(C)c2cc(S(=O)(=O)N3CCOCC3)c(C)cc2C)cc1	-0.901	0.00461 µM [falling, partial curve, poor fit]	–
Cc1cc(C)c(C#N)c(SCc2ccccc2C(=O)O)n1	-10.5	4.61 µM [falling, full curve, poor fit]	–
Cc1ccc(C)c(OCC(=O)Nc2ccc3c(c2)OCO3)c1	49.4	6.51 µM [rising, partial curve, poor fit]	–

Pulled one by one from the entries so far (2):
SMILES	cell number change [%]	AC50 [1]	AC50 [2]
COCc1cc([C@@H]2C[C@H]3CN(c4ccccc4)C(=O)[C@]34CCCN24)ccc1OC	6.55	3.26 µM [rising, single point]	–
Cc1cc(=O)c(C(=O)O)nn1-c1ccccc1[N+](=O)[O-]	21	–	–

(cont.)

SMILES	cell number change [%]	AC50 [1]	AC50 [2]
CC[N+]1(CC)CC2=Cc3c(ccc4ccccc34)CC2C1 (configuration not stated)	-103	–	4.11 µM [falling, full curve]
C/C(=N/OCC(=O)Nc1ccccc1)c1cccs1	-7.96	–	0.259 µM [falling, full curve]
CCOC(=O)/C(C#N)=C/c1c(Oc2cccc(C)c2)nc2ccccn2c1=O	33.9	29.1 µM [rising, single point]	0.103 µM [rising, full curve, poor fit]
C/C(=N\Nc1ccc(S(=O)(=O)Nc2ccccc2)cc1[N+](=O)[O-])c1ccc(N2CCOCC2)cc1	-6.69	0.731 µM [falling, full curve]	–
COc1ccc(C(=O)N(C)CCCC2CCCC2)cc1OC1CCN(C(C)=O)CC1	18.8	6.51 µM [falling, single point]	–
CC(=O)c1cccc(NC(=O)Nc2ccc3c(c2)N(C)C(=O)CS3)c1	–	0.092 µM [rising, full curve, poor fit]	–
COC(=O)NN=C1CCC(c2ccccc2)CC1 (configuration not stated)	7.8	4.61 µM [falling, single point]	–
CCCC(=O)Nc1nnc(Sc2ccc(N(C)C)cc2)s1	–	0.13 µM [rising, full curve, poor fit]	–
CC(C)NC(=O)CN1C(=O)c2cccc3cccc1c23	14.2	–	–
CCN(C(=O)COC(=O)c1cc(-c2ccccc2)nc2c1c(C)nn2-c1ccc(C)cc1)C1CCS(=O)(=O)C1 (configuration not stated)	5.34	29.1 µM [rising, single point]	–
COc1ccc(C2C(C(=O)O)CC(=O)N2c2ccc(OC)cc2)cc1 (configuration not stated)	–	5.8 µM [falling, single point]	–
COc1ccc(S(=O)(=O)N2CCc3ccccc32)cc1C(=O)N1CCOCC1	26.1	–	–
COc1ccc(NC(=O)COC(=O)c2ccc(Br)o2)cc1OC	-18.1	–	–
CSc1ccccc1NC(=O)C1CC(c2ccccc2O)=NO1 (configuration not stated)	-2.64	–	0.0058 µM [falling, full curve, poor fit]
CC(=O)Nc1ccc(-c2cn3ccsc3n2)cc1	5	2.59 µM [rising, partial curve]	–
O=C(CN1C(=O)NC2(CCCC2)C1=O)NCCc1ccc(Cl)cc1Cl	11.6	6.51 µM [rising, single point]	–
CC(Sc1ncc(C(F)(F)F)cc1Cl)C(=O)NC(N)=O (configuration not stated)	-2.17	–	6.51 µM [rising, single point]
Cn1cc(CC(=O)NCCCN2CCCC2)c2ccccc21	-82.3	–	25.9 µM [falling, partial curve, poor fit]
CC(C)CSc1ncnc2c1oc1nc3c(cc12)COC(C)(C)C3	24.9	–	–
NC(=O)NC(c1ccccc1)c1cccc2ccccc12 (configuration not stated)	-4.69	3.66 µM [rising, partial curve, poor fit]	2.59 µM [rising, partial curve, poor fit]
